# Data as given in the supplement of paper PMC8728848.
# Some of the results follow.
# Legend:
# Test in all cases: glycan array binding signal (z-score within array); higher = stronger binding
# Conditions in all cases: glycan notation: IUPAC condensed, linker removed
# [1] = target: Gal(a1-3)GalNAc
# How it was run: (§1)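 From the Consortium for Functional Glycomics database, 3228 arrays were curated, keeping only those whose protein sequence was available. Binding is given as a within-array Z-score averaged across arrays sharing a protein sequence and across linkers. Negative Z-scores can be read as non-binding.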
# [2] = target: Gal(a1-3)[Gal(a1-4)]Gal(b1-4)GlcNAc
# How it was run: as §1
# [3] = target: Gal(a1-4)Gal(b1-3)GlcNAc(b1-2)Man(a1-3)[Gal(a1-4)Gal(b1-3)GlcNAc(b1-2)Man(a1-6)]Man(b1-4)GlcNAc(b1-4)GlcNAc
# How it was run: as §1
# [4] = target: Gal(a1-4)Gal(b1-4)Glc
# How it was run: as §1
# [5] = target: Gal(a1-4)Gal(b1-4)GlcNAc
# How it was run: as §1
# [6] = target: Gal(a1-4)Gal(b1-4)GlcNAc(b1-2)Man(a1-3)[Gal(a1-4)Gal(b1-4)GlcNAc(b1-2)Man(a1-6)]Man(b1-4)GlcNAc(b1-4)GlcNAc
# How it was run: as §1
# [7] = target: Gal(a1-4)Gal(b1-4)GlcNAc(b1-3)Gal(b1-4)Glc
# How it was run: as §1
# [8] = target: Gal(a1-4)GlcNAc
# How it was run: as §1
# [9] = target: Gal(a1-6)Glc
# How it was run: as §1
# [10] = target: Gal(b1-2)Gal
# How it was run: as §1
# [11] = target: Gal(b1-3)Gal
# How it was run: as §1
# [12] = target: Gal(b1-3)Gal(b1-4)GlcNAc
# How it was run: as §1
# [13] = target: Gal(b1-3)Gal(b1-4)GlcNAc(b1-2)Man(a1-3)[Gal(b1-3)Gal(b1-4)GlcNAc(b1-2)Man(a1-6)]Man(b1-4)GlcNAc(b1-4)GlcNAc
# How it was run: as §1
# [14] = target: Gal(b1-3)GalNAc
# How it was run: as §1
# [15] = target: Gal(b1-3)GalNAc(a1-3)[Fuc(a1-2)]Gal(b1-4)Glc
# How it was run: as §1
# [16] = target: Gal(b1-3)GalNAc(a1-3)[Fuc(a1-2)]Gal(b1-4)GlcNAc
# How it was run: as §1
# [17] = target: Gal(b1-3)GalNAc(b1-3)Gal(a1-4)Gal(b1-4)Glc
# How it was run: as §1
# [18] = target: Gal(b1-3)GalNAc(b1-4)Gal(b1-4)Glc
# How it was run: as §1
# [19] = target: Gal(b1-3)GalNAc(b1-4)[Neu5Ac(a2-3)]Gal(b1-4)Glc
# How it was run: as §1
# [20] = target: Gal(b1-3)GlcNAc
# How it was run: as §1
# [21] = target: Gal(b1-3)GlcNAc(a1-6)Gal(b1-4)GlcNAc
# How it was run: as §1
# [22] = target: Gal(b1-3)GlcNAc(b1-2)Man(a1-3)[Gal(b1-3)GlcNAc(b1-2)Man(a1-6)]Man(b1-4)GlcNAc(b1-4)GlcNAc
# How it was run: as §1
# [23] = target: Gal(b1-3)GlcNAc(b1-2)Man(a1-3)[Gal(b1-3)GlcNAc(b1-2)Man(a1-6)]Man(b1-4)GlcNAc(b1-4)[Fuc(a1-6)]GlcNAc
# How it was run: as §1
# [24] = target: Gal(b1-3)GlcNAc(b1-3)Gal(b1-3)GlcNAc
# How it was run: as §1
# [25] = target: Gal(b1-3)GlcNAc(b1-3)Gal(b1-4)Glc
# How it was run: as §1
# [26] = target: Gal(b1-3)GlcNAc(b1-3)Gal(b1-4)GlcNAc
# How it was run: as §1
# [27] = target: Gal(b1-3)GlcNAc(b1-3)Gal(b1-4)GlcNAc(b1-6)[Gal(b1-3)GlcNAc(b1-3)]Gal(b1-4)Glc
# How it was run: as §1
# [28] = target: Gal(b1-3)GlcNAc(b1-3)Gal(b1-4)[Fuc(a1-3)]GlcNAc(b1-6)[Gal(b1-3)GlcNAc(b1-3)]Gal(b1-4)Glc
# How it was run: as §1
# [29] = target: Gal(b1-3)GlcNAc(b1-3)GalNAc
# How it was run: as §1
# [30] = target: Gal(b1-3)GlcNAc(b1-6)Gal(b1-4)GlcNAc
# How it was run: as §1
# [31] = target: Gal(b1-3)[Fuc(a1-4)]GlcNAc
# How it was run: as §1
# [32] = target: Gal(b1-3)[Fuc(a1-4)]GlcNAc(b1-2)Man(a1-3)[Gal(b1-3)[Fuc(a1-4)]GlcNAc(b1-2)Man(a1-6)]Man(b1-4)GlcNAc(b1-4)GlcNAc
# How it was run: as §1
# [33] = target: Gal(b1-3)[Fuc(a1-4)]GlcNAc(b1-2)Man(a1-3)[Gal(b1-3)[Fuc(a1-4)]GlcNAc(b1-2)Man(a1-6)]Man(b1-4)GlcNAc(b1-4)[Fuc(a1-6)]GlcNAc
# How it was run: as §1
# [34] = target: Gal(b1-3)[Fuc(a1-4)]GlcNAc(b1-3)Gal(b1-3)[Fuc(a1-4)]GlcNAc
# How it was run: as §1
# [35] = target: Gal(b1-3)[Fuc(a1-4)]GlcNAc(b1-3)Gal(b1-4)GlcNAc
# How it was run: as §1
# [36] = target: Gal(b1-3)[Fuc(a1-4)]GlcNAc(b1-3)Gal(b1-4)[Fuc(a1-3)]GlcNAc
# How it was run: as §1
# [37] = target: Gal(b1-3)[GlcNAc(b1-6)]GalNAc
# How it was run: as §1
# [38] = target: Gal(b1-3)[Neu5Ac(a2-6)]GalNAc
# How it was run: as §1
# [39] = target: Gal(b1-3)[Neu5Ac(a2-6)]GlcNAc(b1-6)Gal(b1-4)Glc
# How it was run: as §1
# [40] = target: Gal(b1-3)[Neu5Ac(b2-6)]GalNAc
# How it was run: as §1
# [41] = target: Gal(b1-4)GalNAc(a1-3)[Fuc(a1-2)]Gal(b1-4)GlcNAc
# How it was run: as §1
# [42] = target: Gal(b1-4)GalNAc(b1-3)[Fuc(a1-2)]Gal(b1-4)GlcNAc
# How it was run: as §1
# [43] = target: Gal(b1-4)Glc
# How it was run: as §1
# [44] = target: Gal(b1-4)Glc6S
# How it was run: as §1
# [45] = target: Gal(b1-4)GlcNAc
# How it was run: as §1
binder,measurement,setting,value
"CLEC9a (Mus musculus), Q8BRU4 (protein) MHAEEIYTSLQWDIPTSEASQKCQSPSKCSGAWCVVTMISCVVCMGLLATSIFLGIKFFQVSSLVLEQQERLIQQDTALVNLTQWQRKYTLEYCQALLQRSLHSGSDCSPCPHNWIQNGKSCYYVFERWEMWNISKKSCLKEGASLFQIDSKEEMEFISSIGKLKGGNKYWVGVFQDGISGSWFWEDGSSPLSDLLPAERQRSAGQICGYLKDSTLISDKCDSWKYFICEKKAFGSCI",glycan array binding signal (z-score),[1],0.271
same,glycan array binding signal (z-score),[2],-0.691
same,glycan array binding signal (z-score),[3],3.35
same,glycan array binding signal (z-score),[4],-0.652
same,glycan array binding signal (z-score),[5],0.415
same,glycan array binding signal (z-score),[6],0.28
same,glycan array binding signal (z-score),[7],1.36
same,glycan array binding signal (z-score),[8],0.545
same,glycan array binding signal (z-score),[9],-0.332
same,glycan array binding signal (z-score),[10],0.032
same,glycan array binding signal (z-score),[11],0.706
same,glycan array binding signal (z-score),[12],-1.04
same,glycan array binding signal (z-score),[13],0.024
same,glycan array binding signal (z-score),[14],-0.657
same,glycan array binding signal (z-score),[15],-0.197
same,glycan array binding signal (z-score),[16],-0.754
same,glycan array binding signal (z-score),[17],1.15
same,glycan array binding signal (z-score),[18],0.254
same,glycan array binding signal (z-score),[19],0.155
same,glycan array binding signal (z-score),[20],0.346
same,glycan array binding signal (z-score),[21],-1.66
same,glycan array binding signal (z-score),[22],1.97
same,glycan array binding signal (z-score),[23],0.889
same,glycan array binding signal (z-score),[24],-0.95
same,glycan array binding signal (z-score),[25],1.12
same,glycan array binding signal (z-score),[26],1.18
same,glycan array binding signal (z-score),[27],-0.402
same,glycan array binding signal (z-score),[28],-0.367
same,glycan array binding signal (z-score),[29],-1.75
same,glycan array binding signal (z-score),[30],0.069
same,glycan array binding signal (z-score),[31],1.85
same,glycan array binding signal (z-score),[32],-1.53
same,glycan array binding signal (z-score),[33],-1.31
same,glycan array binding signal (z-score),[34],1.12
same,glycan array binding signal (z-score),[35],-0.507
same,glycan array binding signal (z-score),[36],0.941
same,glycan array binding signal (z-score),[37],-0.515
same,glycan array binding signal (z-score),[38],-1.32
same,glycan array binding signal (z-score),[39],0.549
same,glycan array binding signal (z-score),[40],1.89
same,glycan array binding signal (z-score),[41],-1.23
same,glycan array binding signal (z-score),[42],0.3
same,glycan array binding signal (z-score),[43],-0.825
same,glycan array binding signal (z-score),[44],-0.33
same,glycan array binding signal (z-score),[45],-1.06

# Reprinted at random: 4 entries already listed
binder,measurement,setting,value
"CLEC9a (Mus musculus), Q8BRU4 (protein) MHAEEIYTSLQWDIPTSEASQKCQSPSKCSGAWCVVTMISCVVCMGLLATSIFLGIKFFQVSSLVLEQQERLIQQDTALVNLTQWQRKYTLEYCQALLQRSLHSGSDCSPCPHNWIQNGKSCYYVFERWEMWNISKKSCLKEGASLFQIDSKEEMEFISSIGKLKGGNKYWVGVFQDGISGSWFWEDGSSPLSDLLPAERQRSAGQICGYLKDSTLISDKCDSWKYFICEKKAFGSCI",glycan array binding signal (z-score),[20],0.346
same,glycan array binding signal (z-score),[21],-1.66
same,glycan array binding signal (z-score),[41],-1.23
same,glycan array binding signal (z-score),[10],0.032
